From PubChem BioAssay AID493014 (National Center for Advancing Translational Sciences (NCATS), 2011) come the findings set out here.

The structures appear in SMILES notation. The list shows a part of the results. The main result of the screen is listed elsewhere. These columns were measured beside it and carry no call. The list favours compounds with an active or inconclusive main result. Words in brackets tell the shape of the fitted curve; partial curves, single points and poor fits give uncertain potencies.

The experiment can be described thus: qHTS Assay to Find Inhibitors of Chronic Active B-Cell Receptor Signaling. The following applies: ABC-DLBCL IkBa-CBG/CBR reporter, luminescence ratio (green luciferase fused to IkBa over red control in TMD8 lymphoma cells), 4 h. In short, it runs like this: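 Doxycycline induced both beetle luciferases in TMD8 lymphoma cells; IKK-driven degradation limits the IkappaBalpha-fused green signal, while red luminescence normalises for cell number and nonspecific effects. Compounds tested up to 46 uM, 4 hrs.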

[1] abbreviates: measured here: CBR red luminescence, cell number.
Where [2] appears, read: measured here: IkBa-CBG green luminescence.

A word on the AC50: it is the concentration at which the activity in the assay is half-maximal.

`COc1cc(/C=C/[N+](=O)[O-])ccc1OCc1cccc(C(=O)O)c1`: the AC50 under setting [1] is 0.355 µM [falling, full curve]. On the same count and under the same terms, next, `Cn1c(N)c(C#N)c2c(c1=S)COC(C)(C)C2`: 5.8 µM [rising, single point]; `CCOC(=O)CS(=O)(=O)c1nc(-c2ccc(F)cc2)cc(C(F)(F)F)n1`: 20.6 µM [falling, partial curve, poor fit]; `COc1ccc(CN2CCN(C(=O)CCC(=O)Nc3nnc(C4CCCCC4)s3)CC2)cc1F`: 11.2 µM [rising, partial curve]. Same read-out and setting: next, `O=C(Nc1nnc(C2CC2)s1)c1ccc(Cl)nc1`: 16.4 µM [falling, partial curve, poor fit].

As for `Cc1cc(NC(=O)COc2ccccc2C#N)no1`, under setting [1], the concentration at half-maximal activity (AC50) is 20.6 µM [rising, single point].

In the case of `COc1ccc(-c2nc(C#N)c(N3CCOCC3)o2)cc1OC`, under setting [2], the AC50 is 18.4 µM [falling, partial curve, poor fit]. For the molecule `COc1ccc(C2C(C#N)=C(N)Oc3c2ccc2cccnc32)cc1OC` (stereo unspecified), the AC50 under setting [2] was 17.8 µM [falling, single point].

Regarding `Cc1nc2ccc(S(=O)(=O)Nc3cc(-c4nc5cccnc5s4)ccc3C)cc2s1`, the AC50 under setting [2] was 14.6 µM [falling, partial curve, poor fit]. Regarding `COc1ccc(NC2c3ccccc3C(=O)N2Cc2ccccc2Cl)cc1OC` (stereo unspecified), the AC50 under setting [1] was 15.8 µM [falling, single point]. The same measure, in the same setting: the value for `Cc1cccc(C)c1NC(=S)NC(=O)CCc1ccccc1` was 4.47 µM [falling, partial curve, poor fit]; that for `Cc1ccc(NC(=O)C2CC(=O)N(c3ccc4c(c3)OCCO4)C2)cc1S(=O)(=O)N(C)C` (stereo unspecified) was 1.64 µM [rising, full curve]; that for `Cc1cc(C)cc(C(=O)NCC(=O)OCc2nc(N)nc(Nc3ccccc3C)n2)c1` was 25.9 µM [rising, single point]. For the molecule `Cn1c(CN2CCCCC2)nc2cc(NC(=O)c3ccccc3)ccc21`, under setting [1], the AC50 was 20.6 µM [falling, partial curve].

With `COc1ccc(/C=C2\SC(=S)N(CCCC(=O)NNC(=O)c3ccccc3O)C2=O)cc1`, under setting [1], the AC50 is 0.447 µM [falling, full curve]. As to `CN(Cc1cccc2cnccc12)C(=O)c1cc(COc2ccc(F)cc2F)on1`, under setting [1], the half-maximal activity concentration (AC50) is 14.1 µM [falling, partial curve, poor fit].

As to `CN(Cc1nnc(-c2ccc(F)cc2)o1)c1ccccc1`, the AC50 under setting [1] is 11.2 µM [falling, single point].

In the case of `Cc1ccccc1C(=O)NC(=S)Nc1ccc(S(=O)(=O)N2CCN(C)CC2)cc1`, the AC50 under setting [1] is 2.91 µM [falling, full curve, poor fit]. Regarding `CCN(CC)S(=O)(=O)c1ccc(N=N/C(C(C)=O)=C(/C)O)cc1`, the concentration at half-maximal activity (AC50) under setting [1] is 2.59 µM [falling, full curve, poor fit]. `Cc1cccc(N2CCN(C(=O)CSc3nnnn3C3CC3)CC2)c1C`: under setting [2], the half-maximal activity concentration (AC50) is 5.17 µM [falling, partial curve, poor fit]. On to `O=C(CN1C(=O)CC(c2ccco2)Sc2ccccc21)Nc1ccccc1F` (stereo unspecified), for which the AC50 under setting [1] is 0.58 µM [falling, full curve, poor fit]. As to `C=CCNC(=S)Nc1cc(C)ccn1`, the concentration at half-maximal activity (AC50) is 35.5 µM [rising, single point] under setting [1] and 35.5 µM [falling, single point] under setting [2]. As for `Cc1ccc(C)c(-n2c3nc(=O)[nH]c(=O)c-3cc3cc([N+](=O)[O-])ccc32)c1`, the AC50 was 14.6 µM [rising, partial curve] under setting [1] and 8.2 µM [falling, partial curve] under setting [2]. As to `CC(C)NC(=O)C1CCN(C(=O)N(C)C)CC1`, under setting [1], the AC50 is 9.2 µM [rising, partial curve, poor fit]. On the same count and under the same terms, the value for `CCn1c(=O)c2cc(C(=O)NC(C)C)sc2c2ccccc21` was 0.112 µM [rising, full curve, poor fit]. For `CC1(C)CC(=O)C(C=N)=C(O)C1`, the AC50 under setting [1] was 12.6 µM [rising, single point]. On the same count and under the same terms, the value for `Cc1c(C)n2c(SCC(=O)N3CCCCCC3)nnc2[nH]c1=O` was 0.00461 µM [rising, full curve, poor fit]. With `CC1=NNC(=O)C1C(c1ccc(Cl)cc1)C(C#N)C#N` (stereo unspecified), under setting [1], the AC50 is 35.5 µM [falling, single point]. Turning to `Cc1ccc(S(=O)(=O)N2CCC(C(=O)OCC(=O)N(C)CC(=O)Nc3ccc(F)cc3)CC2)cc1C`, the half-maximal activity concentration (AC50) under setting [1] was 5.8 µM [falling, partial curve, poor fit]. Same read-out and setting: next, `CCOC(=O)C1Cn2c(nc3c(c2=O)C2(CCCC2)Cc2ccccc2-3)S1` (stereo unspecified): 17.8 µM [falling, single point]; `COc1ccc(Nc2ccnc(Nc3ccc(OC)cc3)n2)cc1`: 5.17 µM [falling, full curve, poor fit]. On the same count and under the same terms, the value for `COc1ccccc1C(=O)NCC(=O)NCCc1ccc(Cl)cc1` was 5.62 µM [rising, partial curve, poor fit]; that for `CCC(=O)OC1(C)C(=O)C2=COC(c3ccc(OC)cc3)=CC2=C(Br)C1=O` (stereo unspecified) was 11.2 µM [rising, partial curve].

Consider `Cc1cc(C)c2sc(NC(=O)c3ccc(N4C(=O)CCC4=O)cc3)nc2c1`, for which, under setting [1], the half-maximal activity concentration (AC50) is 0.631 µM [falling, full curve, poor fit]. The same measure, in the same setting: the value for `COC(=O)Cn1nnc2c(cnn2-c2ccccc2)c1=O` was 3.98 µM [rising, full curve]; that for `COc1ccc2c(c1)c(=O)oc1cc(OCC(=O)NCC3CCC(C(=O)O)CC3)ccc12` (stereo unspecified) was 2.51 µM [falling, partial curve, poor fit]; that for `O=C(Cn1nnc(-c2ccc(F)cc2)n1)Nc1cccc(S(=O)(=O)N2CCCC2)c1` was 20.6 µM [falling, single point]. Still for that read-out and setting: the value for `CN(C)CCOc1ccc(C(C)(C)c2ccccc2)cc1` was 3.16 µM [rising, full curve, poor fit].

For the molecule `CSc1ccc(CN(C)C(=O)c2cc(=O)[nH]c3ccccc23)cc1`, the half-maximal activity concentration (AC50) under setting [1] is 35.5 µM [rising, single point]. Same read-out and setting: next, `CCN(c1ccc(OC)cc1)S(=O)(=O)N1CCCC(C(=O)NCc2ccccc2Br)C1` (stereo unspecified): 22.4 µM [falling, single point]; `O=C(NC1CCCCC1)c1cc(-c2ccc(O)cc2)on1`: 1.58 µM [falling, full curve].

With `CC1Cc2ccccc2N1C(=O)CCS(=O)(=O)c1cccs1` (stereo unspecified), under setting [1], the AC50 is 7.94 µM [rising, partial curve, poor fit]. For the molecule `COc1ccc(COc2cc(-c3cccc(OC)c3)nc3ccc(NC(=O)c4ccc(OC)cc4)cc23)cc1`, the concentration at half-maximal activity (AC50) runs as follows: under setting [1], 29.1 µM [rising, single point]; under setting [2], 18.4 µM [falling, single point]. Consider `COc1ccc(NC(=O)c2cccc(N3C(=O)C4C5C=CC(C6CC56)C4C3=O)c2)c(OC)c1` (stereo unspecified), for which the half-maximal activity concentration (AC50) under setting [1] is 35.5 µM [falling, single point]. The same measure, in the same setting: the value for `CC1CC(C)CN(CCOCCSc2ccc(Cl)cc2)C1` (stereo unspecified) was 10 µM [falling, partial curve, poor fit]; that for `Cc1cc(F)ccc1NC(=O)C(C)n1c2ccccc2c2nc(=O)cc(C)n21` (stereo unspecified) was 5.62 µM [falling, partial curve, poor fit]; that for `CC(=O)N1C(=O)/C(=C2\SC(=S)N(NC(=O)c3ccc(O)cc3)C2=O)c2ccccc21` was 22.4 µM [falling, single point]. Same read-out and setting: the value for `CC(c1nc2ccccc2c(=O)[nH]1)N(C)CCOc1ccc(Cl)cc1` (stereo unspecified) was 0.631 µM [rising, partial curve]; that for `CC1=NN(C(N)=S)C(=O)C1N=Nc1cccc(C(=O)O)c1` (stereo unspecified) was 0.355 µM [falling, full curve]; that for `COc1ccc(CCNC(=O)C2CCCN2C(=O)NC2CCCCC2)cc1OC` (stereo unspecified) was 0.1 µM [rising, full curve, poor fit]. On the same count and under the same terms, the value for `CCc1ccc(NC(=O)C(=O)NCCN2CCN(C(=O)c3ccco3)CC2)cc1` was 18.4 µM [rising, single point]; that for `O=C(Nc1ccc(N2CCOCC2)cc1)c1nc2ccccc2s1` was 7.08 µM [falling, full curve, poor fit].

Turning to `CCN(CC)CCNC(=O)c1cc2c(-c3ccc(Cl)cc3)nn(C)c2s1`, the AC50 under setting [1] was 23.1 µM [falling, single point]. As for `CCCCN(C(=O)CSc1nc2ccccc2n1CC)C1CCS(=O)(=O)C1` (stereo unspecified), the AC50 runs as follows: under setting [1], 5.8 µM [rising, single point]; under setting [2], 23.1 µM [falling, partial curve, poor fit].

On to `COc1ccccc1NC(=O)OC(C)c1ccc(Cl)cc1` (stereo unspecified), for which the AC50 under setting [1] was 15.8 µM [rising, partial curve, poor fit]. Still for that read-out and setting: the value for `CCOC(=O)c1sc(NC(=O)C2CC2)nc1C` was 5.17 µM [falling, full curve]. Regarding `CN1CCN(Cc2nc(-c3cccs3)no2)CC1c1ccccc1` (stereo unspecified), the concentration at half-maximal activity (AC50) under setting [1] is 3.55 µM [falling, full curve, poor fit]. Turning to `COc1ccc(-n2cc3c(-c4cccc(Br)c4)nnc(C)c3n2)cc1`, the AC50 under setting [1] is 32.6 µM [falling, single point]. On the same count and under the same terms, next, `COc1ccc(CNc2nc(-c3ccccc3)nc3ccccc23)cc1OC`: 35.5 µM [falling, single point]; `O=S(=O)(Nc1ccc2c(c1)nc1n2CCN(Cc2ccccc2)C1)c1ccc(Cl)cc1`: 2.82 µM [falling, partial curve, poor fit]. Regarding `C/C(=N/NC(=O)CNC(=O)c1ccncc1)c1ccco1`, the concentration at half-maximal activity (AC50) under setting [1] is 12.6 µM [falling, single point].

For `Cc1cccc(C)c1NC(=O)CSc1nnc(-c2ccccc2)n1Cc1ccc2c(c1)OCO2`, the half-maximal activity concentration (AC50) under setting [1] is 35.5 µM [falling, single point].
